Experimental data taken from PubChem BioAssay AID256 (DTP/NCI, 2004).
The list shows only some results of the screen, not a fair sample: it is rich in T/C values a quarter to a half above the control, in often repeated tests (any T/C) and in doses without a T/C. Further doses and runs are listed elsewhere. T/C: endpoint of the treated group in % of that of the vehicle group. Some doses have a count of surviving animals in place of a T/C: the source holds a T/C of zero for them, seemingly a mark for toxic or unscored doses. Some doses without a T/C left all or most animals alive at the check, yet need not have been tolerated: survival well below the control is almost never listed, so the zero probably covers shortened survival too. Counts of survivors are from the toxicity check (mostly the fifth day) where no day follows; animals may have died later. Schedules are NCI's codes, read here as Q, the interval in days (D) or hours (H), X, the number of doses. For survival time, this PubChem deposit counts one and a half times the control or more as active, and values a quarter to a half above the control carry no call in these data; other NCI protocols may use other cut-offs.

Tested on: CD2F1 mice, L1210 leukemia ip, survival T/C
Test: NCI In Vivo Anticancer Drug Screen. Data for tumor model L1210 Leukemia (intraperitoneal) in CD2F1 (CDF1) mice
Conditions: higher T/C = longer survival
In short: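 In this screen, transplantable tumors were grown in mice given either the compound or its vehicle. Results were expressed as the treated measurement relative to the control measurement.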

[1] = T/C endpoint: mean survival time, dose: 400.0 mg/kg/injection, schedule: Q01DX001 (ip), vehicle: saline with Tween-80
[2] = T/C endpoint: mean survival time, dose: 200.0 mg/kg/injection, schedule: Q01DX009 (ip), vehicle: saline with Tween-80
[3] = T/C endpoint: mean survival time, dose: 400.0 mg/kg/injection, schedule: Q01DX009 (ip), vehicle: saline with Tween-80
[4] = T/C endpoint: mean survival time, dose: 50.0 mg/kg/injection, schedule: Q01DX009 (ip), vehicle: Klucel (hydroxypropylcellulose) (HPC)
[5] = T/C endpoint: mean survival time, dose: 200.0 mg/kg/injection, schedule: Q01DX009 (ip), vehicle: Klucel (hydroxypropylcellulose) (HPC)
[6] = T/C endpoint: mean survival time, dose: 100.0 mg/kg/injection, schedule: Q04DX003 (ip), vehicle: saline with Tween-80
[7] = T/C endpoint: mean survival time, dose: 200.0 mg/kg/injection, schedule: Q04DX003 (ip), vehicle: saline with Tween-80
[8] = T/C endpoint: mean survival time, dose: 400.0 mg/kg/injection, schedule: Q04DX003 (ip), vehicle: saline with Tween-80
[9] = T/C endpoint: mean survival time, dose: 400.0 mg/kg/injection, schedule: Q01DX001 (ip), vehicle: carboxymethylcellulose (CMC)
[10] = T/C endpoint: mean survival time, dose: 400.0 mg/kg/injection, schedule: Q01DX009 (ip), vehicle: saline

Compound: c1ccc([P+](c2ccccc2)(c2ccccc2)C2CCC2)cc1
- survivor count (T/C endpoint: mean survival time, dose: 100.0 mg/kg/injection, schedule: Q01DX001 (ip), vehicle: saline): 3 of 6
- survivor count (T/C endpoint: mean survival time, dose: 200.0 mg/kg/injection, schedule: Q01DX001 (ip), vehicle: saline): 0 of 6
- survivor count (T/C endpoint: mean survival time, dose: 400.0 mg/kg/injection, schedule: Q01DX001 (ip), vehicle: saline): 0 of 6

Compound: CN1C2CCC1C(Br)C(=O)C2 (stereo unspecified)
- survivor count (T/C endpoint: median survival time, dose: 400.0 mg/kg/injection, schedule: Q01DX009 (ip), vehicle: saline): 0 of 6

Compound: O=C(NCC#CCN1CCCC1)Nc1cccc(Cl)c1
- survivor count (T/C endpoint: mean survival time, dose: 200.0 mg/kg/injection, schedule: Q01DX001 (ip), vehicle: saline with Tween-80): 5 of 6
- survivor count [1]: 0 of 6

Compound: F[C](F)(F)[Hg][Br]
- survivor count (T/C endpoint: mean survival time, dose: 100.0 mg/kg/injection, schedule: Q04DX002 (ip), vehicle: saline): 0 of 3
- survivor count (T/C endpoint: mean survival time, dose: 200.0 mg/kg/injection, schedule: Q04DX002 (ip), vehicle: saline): 0 of 3
- survivor count (T/C endpoint: mean survival time, dose: 400.0 mg/kg/injection, schedule: Q04DX002 (ip), vehicle: saline): 0 of 3

Compound: CC(=O)OC1CC2CC(C1C)C2(C)C (stereo unspecified)
- survivor count [2]: 3 of 6
- survivor count [3]: 0 of 6

Compound: COc1cc(N=Nc2ccccc2C(=O)O)ccc1N(CCCl)CCCl
- survivor count [4]: 3 of 3
- survivor count (T/C endpoint: mean survival time, dose: 100.0 mg/kg/injection, schedule: Q01DX009 (ip), vehicle: Klucel (hydroxypropylcellulose) (HPC)): 0 of 3
- survivor count [5]: 0 of 3

Compound: CC1(C)/C(=N/Nc2ccc([N+](=O)[O-])cc2[N+](=O)[O-])C=Cc2ccccc21
- survivor count (T/C endpoint: mean survival time, dose: 50.0 mg/kg/injection, schedule: Q01DX009 (ip), vehicle: other): 6 of 6

Compound: Nc1cc(C(F)(F)F)ccc1/C(=C/c1ccc(Cl)cc1)C(=O)O
- survivor count (T/C endpoint: mean survival time, dose: 300.0 mg/kg/injection, schedule: Q04DX003 (ip), vehicle: saline): 1 of 6

Compound: O=C(Oc1ccn(C2OC(CO)C(O)C2O)c(=O)c1)C12CC3CC(CC(C3)C1)C2 (stereo unspecified)
- T/C (T/C endpoint: median survival time, dose: 10.0 mg/kg/injection, schedule: Q01DX009 (ip), vehicle: saline + Tween-80 + alcohol): 137 % of control

Compound: Fc1c(F)c(F)[c]([Sn]([c]2ccccc2)([c]2ccccc2)[c]2ccccc2)c(F)c1F
- survivor count (T/C endpoint: mean survival time, dose: 50.0 mg/kg/injection, schedule: Q04DX003 (ip), vehicle: saline with Tween-80): 6 of 6
- survivor count [6]: 3 of 6
- survivor count [7]: 2 of 6
- survivor count [8]: 5 of 6

Compound: CCOC(=S)SCC(=O)O
- survivor count [1]: 2 of 3

Compound: O=C1C(NCCO)=C(N2CC2)C(=O)C(NCCO)=C1N1CC1
- T/C (T/C endpoint: median survival time, dose: 0.12 mg/kg/injection, schedule: Q01DX009 (ip), vehicle: saline): 130 % of control

Compound: Cc1ccc(S/C=C/C(=O)Nc2ccccc2)cc1
- survivor count [7]: 6 of 6
- survivor count [8]: 6 of 6

Compound: COc1ccc2[nH]c(=O)c3c(c2c1)CCC(OC(=O)c1ccccc1)C3 (stereo unspecified)
- survivor count (T/C endpoint: mean survival time, dose: 100.0 mg/kg/injection, schedule: Q04DX003 (ip), vehicle: saline): 1 of 6
- survivor count (T/C endpoint: mean survival time, dose: 200.0 mg/kg/injection, schedule: Q04DX003 (ip), vehicle: saline): 0 of 6
- survivor count (T/C endpoint: mean survival time, dose: 400.0 mg/kg/injection, schedule: Q04DX003 (ip), vehicle: saline): 0 of 6

Compound: O=C(O)CCc1cc([N+](=O)[O-])c(O)c([N+](=O)[O-])c1
- survivor count [3]: 1 of 6

Compound: CCOC(=O)c1cn[nH]c1/N=N/N(C)C
- T/C (T/C endpoint: mean survival time, dose: 200.0 mg/kg/injection, schedule: Q01DX001 (ip), vehicle: carboxymethylcellulose (CMC)): 125 % of control
- T/C [9]: 128 % of control

Compound: O=S(=O)(Oc1ccccc1)c1c(F)c(F)c(F)c(F)c1F
- survivor count [7]: 1 of 6
- survivor count [8]: 0 of 6

Compound: CNN=C1CCCC1
- survivor count (T/C endpoint: mean survival time, dose: 50.0 mg/kg/injection, schedule: Q01DX009 (ip), vehicle: saline): 3 of 3
- survivor count (T/C endpoint: mean survival time, dose: 100.0 mg/kg/injection, schedule: Q01DX009 (ip), vehicle: saline): 0 of 3
- survivor count (T/C endpoint: mean survival time, dose: 200.0 mg/kg/injection, schedule: Q01DX009 (ip), vehicle: saline): 0 of 3
- survivor count [10]: 0 of 3

Compound: O=C1CC2c3[nH]c4ccccc4c3CCN2C2=C1CCCC2 (stereo unspecified)
- survivor count [8]: 1 of 6

Compound: C1CCC(NC2CCCCC2)CC1
- survivor count (T/C endpoint: mean survival time, dose: 100.0 mg/kg/injection, schedule: Q01DX001 (ip), vehicle: saline with Tween-80): 0 of 6

Compound: Nc1ccc2nc3c4ccccc4c(O)n3nc2c1
- survivor count [3]: 0 of 3

Compound: CN(Cc1cnc2nc(N)nc(N)c2n1)c1ccc(C(=O)NC(CCC(=O)O)C(=O)NCC(=O)O)cc1 (stereo unspecified)
- T/C (T/C endpoint: mean survival time, dose: 25.0 mg/kg/injection, schedule: Q01DX009 (ip), vehicle: sodium bicarbonate): 137 % of control
- T/C (T/C endpoint: mean survival time, dose: 50.0 mg/kg/injection, schedule: Q01DX009 (ip), vehicle: sodium bicarbonate): 141 % of control
- T/C (T/C endpoint: mean survival time, dose: 75.0 mg/kg/injection, schedule: Q01DX009 (ip), vehicle: sodium bicarbonate): 137 % of control
- T/C (T/C endpoint: mean survival time, dose: 100.0 mg/kg/injection, schedule: Q01DX009 (ip), vehicle: sodium bicarbonate): 135 % of control
- T/C (T/C endpoint: mean survival time, dose: 125.0 mg/kg/injection, schedule: Q01DX009 (ip), vehicle: sodium bicarbonate): 129 % of control

Compound: CC1CC(C)(C)N=C(C(Cc2ccccc2)Cc2ccccc2)O1 (stereo unspecified)
- survivor count [1]: 2 of 6

Compound: Cc1cc(OCC2=NCCN2)c(C)c(C)c1Cl
- survivor count (T/C endpoint: mean survival time, dose: 100.0 mg/kg/injection, schedule: Q04DX002 (ip), vehicle: saline with Tween-80): 0 of 3
- survivor count (T/C endpoint: mean survival time, dose: 200.0 mg/kg/injection, schedule: Q04DX002 (ip), vehicle: saline with Tween-80): 0 of 3
- survivor count (T/C endpoint: mean survival time, dose: 400.0 mg/kg/injection, schedule: Q04DX002 (ip), vehicle: saline with Tween-80): 0 of 3

Compound: C=CCN(CC=C)Cc1cccc(N(CCCl)CCCl)c1 (tested in a mixture with another compound)
- survivor count [5]: 3 of 3

Compound: CN(CCN1CCCCC1)C(=O)C(O)(c1ccccc1)c1ccccc1
- survivor count (T/C endpoint: mean survival time, dose: 300.0 mg/kg/injection, schedule: Q01DX001 (ip), vehicle: saline): 2 of 6

Compound: N#Cc1c(NC(=S)NC2OC(COCc3ccccc3)C(OCc3ccccc3)C2OCc2ccccc2)ncn1Cc1ccccc1 (stereo unspecified)
- survivor count (T/C endpoint: mean survival time, dose: 400.0 mg/kg/injection, schedule: Q04DX003 (ip), vehicle: acetone): 6 of 6

Compound: CC(C)(O)C(Cl)S(=O)c1ccccc1 (stereo unspecified)
- survivor count (T/C endpoint: mean survival time, dose: 126.0 mg/kg/injection, schedule: Q04DX002 (ip), vehicle: saline with Tween-80): 6 of 6

Compound: CCC(NC(N)=O)C(CC)NC(N)=O (stereo unspecified)
- survivor count (T/C endpoint: median survival time, dose: 100.0 mg/kg/injection, schedule: Q01DX009 (ip), vehicle: saline with Tween-80): 0 of 6
- survivor count (T/C endpoint: median survival time, dose: 200.0 mg/kg/injection, schedule: Q01DX009 (ip), vehicle: saline with Tween-80): 0 of 6

Compound: CCN(CC)c1ncnc2nncnc12
- survivor count [9]: 0 of 6

Compound: C=CCOCCC#N
- survivor count [2]: 0 of 6
- survivor count [3]: 3 of 6

Compound: CS(=O)(=O)OCC(/C=C/C(COS(C)(=O)=O)OS(C)(=O)=O)OS(C)(=O)=O (stereo unspecified)
- T/C (T/C endpoint: mean survival time, dose: 25.0 mg/kg/injection, schedule: Q01DX009 (ip), vehicle: Klucel (hydroxypropylcellulose) (HPC)): 128 % of control
- T/C [4]: 134 % of control

Compound: CCCCCCCCCCCCCCCCN(C)C
- survivor count [6]: 0 of 6

Compound: CC(C)CCCC(C)C1CCC2C3CCC4=CC5(CCC4(C)C3CCC12C)SCCS5 (stereo unspecified)
- survivor count [1]: 6 of 6

Compound: Cc1cc2ncn(CC(=O)O)c2cc1C
- survivor count [3]: 2 of 6

Compound: N#C/C(=C\c1ccc(-c2ccccc2)cc1)c1ccc(Cl)cc1
- survivor count [6]: 6 of 6
- survivor count [8]: 5 of 6

Compound: COC(=O)C1C2CCC(COC(C)=O)(O2)C1C(=O)O (stereo unspecified)
- survivor count [10]: 6 of 6

Compound: CCN(CC)c1cc(C(=O)O)cc(N(CC)CC)n1
- T/C (T/C endpoint: median survival time, dose: 25.0 mg/kg/injection, schedule: Q01DX009 (ip), vehicle: other): 128 % of control
- survivor count (T/C endpoint: median survival time, dose: 200.0 mg/kg/injection, schedule: Q01DX005 (ip), vehicle: acid diluted with saline): 1 of 6
- survivor count (T/C endpoint: median survival time, dose: 400.0 mg/kg/injection, schedule: Q01DX005 (ip), vehicle: acid diluted with saline): 0 of 6

Compound: CCOC1([N+](=O)[O-])c2ccccc2-c2nc3ccccc3cc21 (stereo unspecified)
- survivor count (T/C endpoint: mean survival time, dose: 100.0 mg/kg/injection, schedule: Q04DX003 (ip), vehicle: Klucel (hydroxypropylcellulose) (HPC)): 3 of 6
- survivor count (T/C endpoint: mean survival time, dose: 400.0 mg/kg/injection, schedule: Q04DX003 (ip), vehicle: Klucel (hydroxypropylcellulose) (HPC)): 2 of 6
